Results are given in words; binding and its absence hold for the method and conditions named. In cells and extracts the contact can be indirect. Here binding means that the protein was enriched with, or labelled near, the bait; the list need not be complete.

The chains behind the UniProt entries cited, without tags or fusion partners. Residues count along the entry.
UniProt P70206, residues 28-1894: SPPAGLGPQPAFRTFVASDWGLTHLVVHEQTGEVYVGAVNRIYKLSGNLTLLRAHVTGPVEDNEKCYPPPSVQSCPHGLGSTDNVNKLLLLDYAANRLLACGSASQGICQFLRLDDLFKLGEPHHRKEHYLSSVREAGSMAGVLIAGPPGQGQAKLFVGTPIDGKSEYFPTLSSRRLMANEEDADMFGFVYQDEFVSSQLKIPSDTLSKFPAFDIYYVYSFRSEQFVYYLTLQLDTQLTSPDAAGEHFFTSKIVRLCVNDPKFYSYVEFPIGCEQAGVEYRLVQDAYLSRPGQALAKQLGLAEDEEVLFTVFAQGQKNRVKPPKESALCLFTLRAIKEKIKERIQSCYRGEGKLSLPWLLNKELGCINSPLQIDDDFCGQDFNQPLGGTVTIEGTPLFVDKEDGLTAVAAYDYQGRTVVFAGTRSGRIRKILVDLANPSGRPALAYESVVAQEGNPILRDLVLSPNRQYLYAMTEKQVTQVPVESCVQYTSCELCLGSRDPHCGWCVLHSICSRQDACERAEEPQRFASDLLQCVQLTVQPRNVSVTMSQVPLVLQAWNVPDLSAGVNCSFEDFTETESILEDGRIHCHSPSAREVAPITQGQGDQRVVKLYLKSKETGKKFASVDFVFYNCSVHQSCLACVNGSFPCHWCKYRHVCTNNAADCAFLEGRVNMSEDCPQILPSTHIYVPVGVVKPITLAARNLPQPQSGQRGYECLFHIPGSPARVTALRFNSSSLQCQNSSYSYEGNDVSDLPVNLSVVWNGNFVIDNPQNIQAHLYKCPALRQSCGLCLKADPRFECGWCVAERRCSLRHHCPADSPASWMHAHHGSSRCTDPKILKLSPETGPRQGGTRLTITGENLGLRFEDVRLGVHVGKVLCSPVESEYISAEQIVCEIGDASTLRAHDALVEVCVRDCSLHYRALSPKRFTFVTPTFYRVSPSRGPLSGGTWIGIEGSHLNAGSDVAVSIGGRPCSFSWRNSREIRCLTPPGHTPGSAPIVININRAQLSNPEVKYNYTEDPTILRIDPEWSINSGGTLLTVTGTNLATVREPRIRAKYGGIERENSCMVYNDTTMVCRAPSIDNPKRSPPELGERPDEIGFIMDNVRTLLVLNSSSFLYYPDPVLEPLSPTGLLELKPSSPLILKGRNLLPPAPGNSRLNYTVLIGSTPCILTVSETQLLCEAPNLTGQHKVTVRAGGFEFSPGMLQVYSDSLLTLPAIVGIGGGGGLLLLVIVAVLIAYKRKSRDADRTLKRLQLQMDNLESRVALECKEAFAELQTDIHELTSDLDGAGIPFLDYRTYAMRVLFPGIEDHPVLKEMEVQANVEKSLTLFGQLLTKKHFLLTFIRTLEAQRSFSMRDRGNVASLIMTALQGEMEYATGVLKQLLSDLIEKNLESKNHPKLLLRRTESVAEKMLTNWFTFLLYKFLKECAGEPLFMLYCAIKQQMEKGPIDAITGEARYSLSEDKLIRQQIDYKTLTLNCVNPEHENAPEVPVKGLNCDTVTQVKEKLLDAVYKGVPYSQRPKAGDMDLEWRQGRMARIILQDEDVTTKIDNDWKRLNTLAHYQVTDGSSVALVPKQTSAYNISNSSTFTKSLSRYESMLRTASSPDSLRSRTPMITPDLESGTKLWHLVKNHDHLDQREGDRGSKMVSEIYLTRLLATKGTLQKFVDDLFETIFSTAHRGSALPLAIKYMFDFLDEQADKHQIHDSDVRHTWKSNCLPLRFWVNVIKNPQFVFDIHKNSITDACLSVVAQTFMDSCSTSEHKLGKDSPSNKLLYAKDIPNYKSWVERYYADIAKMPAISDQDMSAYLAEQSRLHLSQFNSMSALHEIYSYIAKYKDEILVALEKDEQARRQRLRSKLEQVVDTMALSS

This test concerns the target Plexin-A1, endogenous in mouse bone marrow cell-derived PDC (mouse) (UniProt P70206). The test can be described thus: co-immunoprecipitation with antibody to membrane molecule (A) from mouse bone marrow-derived PDC, band identified by mass spectrometry.

B1: membrane molecule (A) of the present invention (PDC-TREM), mouse, full length (receptor)
chain: QNPELLRTQEGETVSVTCWYDSLYHSSEKIWCKQIDNLCYPFVSKSAEKPRFLIQQSSRFNFFTVTMTKLKMSDSGIYHCGIVANNTSVYLRNIHLVVSKGSSVVSTPDIIPATRLTKLPTLITTKHSPSDTTTTRSLPQPTTVVSSPDPRVIIINGTDADRGFVSSVTIPVVCGLLSKTLVFTVLFIVTQKSFGRQAMKAHNSNS
As for B1, the binding result is given as “binds”.

The values above are taken from patent US20090162869A1.
